Laboratory results: US12099068B2, “Biomarkers for graft-versus-host disease” (Incyte Corporation, priority 2018, dated 2024)

B1: CLEC7A (protein, UniProt Q9BXN2 1-247, looked up)
C-type lectin domain family 7 …: MEYHPDLENLDEDGYTQLHFDSQSNTRIAVVSEKGSCAASPPWRLIAVILGILCLVILVIAVVLGTMAIWRSNSGSNTLENGYFLSRNKENHSQPTQSSLEDSVTPTKAVKTTGVLSSPCPPNWIIYEKSCYLFSMSLNSWDGSKRQCWQLGSNLLKIDSSNELGFIVKQVSSQPDNSFWIGLSRPQTEVPWLWEDGSTFSSNLFQIRTTATQENPSPNCVWIHVSVIYDQLCSVPSYSICEKKFSM
B2: NINJ1 (protein, UniProt Q92982 1-152, looked up)
Ninjurin-1: MDSGTEEYELNGGLPPGTPGSPDASPARWGWRHGPINVNHYASKKSAAESMLDIALLMANASQLKAVVEQGPSFAFYVPLVVLISISLVLQIGVGVLLIFLVKYDLNNPAKHAKLDFLNNLATGLVFIIVVVNIFITAFGVQKPLMDMAPQQ
B3: CLM-1 (protein, UniProt Q8TDQ1 20-290, looked up)
CMRF35-like molecule 1: TQITGPTTVNGLERGSLTVQCVYRSGWETYLKWWCRGAIWRDCKILVKTSGSEQEVKRDRVSIKDNQKNRTFTVTMEDLMKTDADTYWCGIEKTGNDLGVTVQVTIDPAPVTQEETSSSPTLTGHHLDNRHKLLKLSVLLPLIFTILLLLLVAASLLAWRMMKYQQKAAGMSPEQVLQPLEGDLCYADLTLQLAGTSPQKATTKLSSAQVDQVEVEYVTMASLPKEDISYASLTLGAEDQEPTYCNMGHLSSHLPGRGPEEPTEYSTISRP
B4: PAM (protein, UniProt P19021 31-973, looked up)
Peptidyl-glycine …: FKETTRPFSNECLGTTRPVVPIDSSDFALDIRMPGVTPKQSDTYFCMSMRIPVDEEAFVIDFKPRASMDTVHHMLLFGCNMPSSTGSYWFCDEGTCTDKANILYAWARNAPPTRLPKGVGFRVGGETGSKYFVLQVHYGDISAFRDNNKDCSGVSLHLTRLPQPLIAGMYLMMSVDTVIPAGEKVVNSDISCHYKNYPMHVFAYRVHTHHLGKVVSGYRVRNGQWTLIGRQSPQLPQAFYPVGHPVDVSFGDLLAARCVFTGEGRTEATHIGGTSSDEMCNLYIMYYMEAKHAVSFMTCTQNVAPDMFRTIPPEANIPIPVKSDMVMMHEHHKETEYKDKIPLLQQPKREEEEVLDQGDFYSLLSKLLGEREDVVHVHKYNPTEKAESESDLVAEIANVVQKKDLGRSDAREGAEHERGNAILVRDRIHKFHRLVSTLRPPESRVFSLQQPPPGEGTWEPEHTGDFHMEEALDWPGVYLLPGQVSGVALDPKNNLVIFHRGDHVWDGNSFDSKFVYQQIGLGPIEEDTILVIDPNNAAVLQSSGKNLFYLPHGLSIDKDGNYWVTDVALHQVFKLDPNNKEGPVLILGRSMQPGSDQNHFCQPTDVAVDPGTGAIYVSDGYCNSRIVQFSPSGKFITQWGEESSGSSPLPGQFTVPHSLALVPLLGQLCVADRENGRIQCFKTDTKEFVREIKHSSFGRNVFAISYIPGLLFAVNGKPHFGDQEPVQGFVMNFSNGEIIDIFKPVRKHFDMPHDIVASEDGTVYIGDAHTNTVWKFTLTEKLEHRSVKKAGIEVQEIKEAEAVVETKMENKPTSSELQKMQEKQKLIKEPGSGVPVVLITTLLVIPVVVLLAIAIFIRWKKSRAFGDSEHKLETSSGRVLGRFRGKGSGGLNLGNFFASRKGYSRKGFDRLSTEGSDQEKEDDGSESEEEYSAPLPALAPSSS
B5: SIRPB1 (protein, UniProt O00241 30-398, looked up)
Signal-regulatory protein …: EDELQVIQPEKSVSVAAGESATLRCAMTSLIPVGPIMWFRGAGAGRELIYNQKEGHFPRVTTVSELTKRNNLDFSISISNITPADAGTYYCVKFRKGSPDDVEFKSGAGTELSVRAKPSAPVVSGPAVRATPEHTVSFTCESHGFSPRDITLKWFKNGNELSDFQTNVDPAGDSVSYSIHSTARVVLTRGDVHSQVICEIAHITLQGDPLRGTANLSEAIRVPPTLEVTQQPMRAENQANVTCQVSNFYPRGLQLTWLENGNVSRTETASTLIENKDGTYNWMSWLLVNTCAHRDDVVLTCQVEHDGQQAVSKSYALEISAHQKEHGSDITHEAALAPTAPLLVALLLGPKLLLVVGVSAIYICWKQKA
B6: LAIR1 (protein, UniProt Q6GTX8 22-287, looked up)
Leukocyte-associated …: QEEDLPRPSISAEPGTVIPLGSHVTFVCRGPVGVQTFRLERDSRSTYNDTEDVSQASPSESEARFRIDSVREGNAGLYRCIYYKPPKWSEQSDYLELLVKESSGGPDSPDTEPGSSAGPTQRPSDNSHNEHAPASQGLKAEHLYILIGVSVVFLFCLLLLVLFCLHRQNQIKQGPPRSKDEEQKPQQRPDLAVDVLERTADKATVNGLPEKDRETDTSALAAGSSQEVTYAQLDHWALTQRTARAVSPQSTKPMAESITYAAVARH
B7: PILRA (protein, UniProt Q9UKJ1 20-303, looked up)
Paired immunoglobulin-like …: QPSGSTGSGPSYLYGVTQPKHLSASMGGSVEIPFSFYYPWELATAPDVRISWRRGHFHRQSFYSTRPPSIHKDYVNRLFLNWTEGQKSGFLRISNLQKQDQSVYFCRVELDTRSSGRQQWQSIEGTKLSITQAVTTTTQRPSSMTTTWRLSSTTTTTGLRVTQGKRRSDSWHISLETAVGVAVAVTVLGIMILGLICLLRWRRRKGQQRTKATTPAREPFQNTEEPYENIRNEGQNTDPKLNPKDDGIVYASLALSSSTSPRAPPSHRPLKSPQNETLYSVLKA
B8: CKAP4 (protein, UniProt Q07065 1-602, looked up)
Cytoskeleton-associated …: MPSAKQRGSKGGHGAASPSEKGAHPSGGADDVAKKPPPAPQQPPPPPAPHPQQHPQQHPQNQAHGKGGHRGGGGGGGKSSSSSSASAAAAAAAASSSASCSRRLGRALNFLFYLALVAAAAFSGWCVHHVLEEVQQVRRSHQDFSRQREELGQGLQGVEQKVQSLQATFGTFESILRSSQHKQDLTEKAVKQGESEVSRISEVLQKLQNEILKDLSDGIHVVKDARERDFTSLENTVEERLTELTKSINDNIAIFTEVQKRSQKEINDMKAKVASLEESEGNKQDLKALKEAVKEIQTSAKSREWDMEALRSTLQTMESDIYTEVRELVSLKQEQQAFKEAADTERLALQALTEKLLRSEESVSRLPEEIRRLEEELRQLKSDSHGPKEDGGFRHSEAFEALQQKSQGLDSRLQHVEDGVLSMQVASARQTESLESLLSKSQEHEQRLAALQGRLEGLGSSEADQDGLASTVRSLGETQLVLYGDVEELKRSVGELPSTVESLQKVQEQVHTLLSQDQAQAARLPPQDFLDRLSSLDNLKASVSQVEADLKMLRTAVDSLVAYSVKIETNENNLESAKGLLDDLRNDLDRLFVKVEKIHEKV
B9: CCL17 (protein, UniProt Q92583 24-94, looked up)
C-C motif chemokine 17: ARGTNVGRECCLEYFKGAIPLRKLKTWYQTSEDCSRDAIVFVTVQGRAICSDPNNKRVKNAVKYLQSLERS
B10: VEGFD (protein, UniProt O43915 89-205, looked up)
Vascular endothelial growth …: FAATFYDIETLKVIDEEWQRTQCSPRETCVEVASELGKSTNTFFKPPCVNVFRCGGCCNEESLICMNTSTSYISKQLFEISVPLTSVPELVPVKVANHTGCKCLPTAPRHPYSIIRR
B11: KLK10 (protein, UniProt O43240 31-276, looked up)
Kallikrein-10: AEAALLPQNDTRLDPEAYGSPCARGSQPWQVSLFNGLSFHCAGVLVDQSWVLTAAHCGNKPLWARVGDDHLLLLQGEQLRRTTRSVVHPKYHQGSGPILPRRTDEHDLMLLKLARPVVLGPRVRALQLPYRCAQPGDQCQVAGWGTTAARRVKYNKGLTCSSITILSPKECEVFYPGVVTNNMICAGLDRGQDPCQSDSGGPLVCDETLQGILSWGVYPCGSAQHPAVYTQICKYMSWINKVIRSN
B12: RTN4R (protein, UniProt Q9BZR6 27-447, looked up)
Reticulon-4 receptor: CPGACVCYNEPKVTTSCPQQGLQAVPVGIPAASQRIFLHGNRISHVPAASFRACRNLTILWLHSNVLARIDAAAFTGLALLEQLDLSDNAQLRSVDPATFHGLGRLHTLHLDRCGLQELGPGLFRGLAALQYLYLQDNALQALPDDTFRDLGNLTHLFLHGNRISSVPERAFRGLHSLDRLLLHQNRVAHVHPHAFRDLGRLMTLYLFANNLSALPTEALAPLRALQYLRLNDNPWVCDCRARPLWAWLQKFRGSSSEVPCSLPQRLAGRDLKRLAANDLQGCAVATGPYHPIWTGRATDEEPLGLPKCCQPDAADKASVLEPGRPASAGNALKGRVPPGDSPPGNGSGPRHINDSPFGTLPGSAEPPLTAVRPEGSEPPGFPTSGPRRRPGCSRKNRTRSHCRLGQAGSGGGGTGDSEGS
B13: DNER (protein, UniProt Q8NFT8 35-737, looked up)
Delta and Notch-like …: NPVPAAPLSAPGPCAAQPCRNGGVCTSRPEPDPQHPAPAGEPGYSCTCPAGISGANCQLVADPCASNPCHHGNCSSSSSSSSDGYLCICNEGYEGPNCEQALPSLPATGWTESMAPRQLQPVPATQEPDKILPRSQATVTLPTWQPKTGQKVVEMKWDQVEVIPDIACGNASSNSSAGGRLVSFEVPQNTSVKIRQDATASLILLWKVTATGFQQCSLIDGRSVTPLQASGGLVLLEEMLALGNNHFIGFVNDSVTKSIVALRLTLVVKVSTCVPGESHANDLECSGKGKCTTKPSEATFSCTCEEQYVGTFCEEYDACQRKPCQNNASCIDANEKQDGSNFTCVCLPGYTGELCQSKIDYCILDPCRNGATCISSLSGFTCQCPEGYFGSACEEKVDPCASSPCQNNGTCYVDGVHFTCNCSPGFTGPTCAQLIDFCALSPCAHGTCRSVGTSYKCLCDPGYHGLYCEEEYNECLSAPCLNAATCRDLVNGYECVCLAEYKGTHCELYKDPCANVSCLNGATCDSDGLNGTCICAPGFTGEECDIDINECDSNPCHHGGSCLDQPNGYNCHCPHGWVGANCEIHLQWKSGHMAESLTNMPRHSLYIIIGALCVAFILMLIILIVGICRISRIEYQGSSRPAYEEFYNCRSIDSEFSNAIASIRHARFGKKSRPAMYDVSPIAYEDYSPDDKPLVTLIKTKDL
B14: CNDP1 (protein, UniProt Q96KN2 27-507, looked up)
Beta-Ala-His dipeptidase: SPSPPPALLEKVFQYIDLHQDEFVQTLKEWVAIESDSVQPVPRFRQELFRMMAVAADTLQRLGARVASVDMGPQQLPDGQSLPIPPVILAELGSDPTKGTVCFYGHLDVQPADRGDGWLTDPYVLTEVDGKLYGRGATDNKGPVLAWINAVSAFRALEQDLPVNIKFIIEGMEEAGSVALEELVEKEKDRFFSGVDYIVISDNLWISQRKPAITYGTRGNSYFMVEVKCRDQDFHSGTFGGILHEPMADLVALLGSLVDSSGHILVPGIYDEVVPLTEEEINTYKAIHLDLEEYRNSSRVEKFLFDTKEEILMHLWRYPSLSIHGIEGAFDEPGTKTVIPGRVIGKFSIRLVPHMNVSAVEKQVTRHLEDVFSKRNSSNKMVVSMTLGLHPWIANIDDTQYLAAKRAIRTVFGTEPDMIRDGSTIPIAKMFQEIVHKSVVLIPLGAVDDGEHSQNEKINRWNYIEGTKLFAAFFLEMAQLH

Tested on: plasma proteins
Assay: OLINK proximity extension assay of baseline plasma, CR compared to PD/Death, updated classification, Example 5 (Table 11)
Assay type: in vivo, human
Details: itacitinib 200 or 300 mg QD plus corticosteroids, response at day 28

Molecule	Fold Change, Down-Regulated in CR Compared to PD/Death	Fold Change, Up-Regulated in CR Compared to PD/Death
B1	−1.7189	
B2	−2.3018	
B3	−2.2069	
B4		1.3347
B5	−1.9684	
B6	−1.7352	
B7	−1.5248	
B8	−2.3793	
B9		6.4545
B10		1.4176
B11		1.2844
B12	−1.6966	
B13		1.4054
B14		1.5685
